Among the data in publication doi:10.1101/2023.01.30.525655 are binding values, retold here.

Amino acid sequences for entries named in this document (tags omitted). Residues count along the entry.
UniProt P02769, residues 25-607: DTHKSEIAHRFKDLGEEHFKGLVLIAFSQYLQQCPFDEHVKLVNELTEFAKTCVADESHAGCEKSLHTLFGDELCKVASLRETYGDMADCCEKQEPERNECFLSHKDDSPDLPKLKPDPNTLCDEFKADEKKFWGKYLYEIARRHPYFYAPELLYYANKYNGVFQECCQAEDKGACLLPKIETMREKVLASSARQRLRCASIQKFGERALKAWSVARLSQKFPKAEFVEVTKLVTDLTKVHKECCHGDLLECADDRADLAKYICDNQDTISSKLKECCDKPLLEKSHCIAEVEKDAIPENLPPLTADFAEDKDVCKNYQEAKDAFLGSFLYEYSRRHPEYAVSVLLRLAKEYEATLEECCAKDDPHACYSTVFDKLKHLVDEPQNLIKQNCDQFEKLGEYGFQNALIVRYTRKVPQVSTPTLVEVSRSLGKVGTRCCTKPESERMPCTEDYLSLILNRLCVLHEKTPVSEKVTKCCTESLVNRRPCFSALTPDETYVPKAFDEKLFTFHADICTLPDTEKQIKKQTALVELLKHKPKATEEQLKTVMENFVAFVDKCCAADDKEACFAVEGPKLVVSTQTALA

The experiment concerns the target T1, RED-NHS-MIF-6xHis (human MIF-6xHis labelled with the RED-NHS dye) (human) (UniProt P14174).
T1 sequence (chain, RED-NHS dye (chemically labeled)): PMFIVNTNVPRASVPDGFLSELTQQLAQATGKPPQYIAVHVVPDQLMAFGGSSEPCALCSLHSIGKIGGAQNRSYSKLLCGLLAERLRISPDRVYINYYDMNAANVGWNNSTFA
As to the kind of experiment: MST.

No constants are given. Whether binding was seen depends on the method and setting. Sequences can lack the tags named with a protein.

“bovine serum albumin (BSA) (from UniProt P02769 25-607)”: the binding result is recorded as “no binding”.
